Experimental data as given in patent US20060270019A1, “Method for producing lactic acid bacterium culture containing bacteriocin and a method for preserving food products for by using it” (Ajinomoto Co., Inc., priority 2003, published 2006).

Assay: Aging of ground beef: free amino acid content

[Cl-].[Na+] [salt, sodium chloride]
FAA (Aging day 0): 66 µmol/g | FAA (Aging day 1, ambient temperature): 73 µmol/g | FAA (Aging day 7, ambient temperature): 70 µmol/g
